Results: publication PMC4825019
No constants are given. Whether binding was seen depends on the method and setting. In cells and extracts the contact can be indirect. Binding calls can cover weak binding; strength is not graded here.

Protein sequences, listed by entry. Tags and fused reporters are not part of them.
UniProt P61264: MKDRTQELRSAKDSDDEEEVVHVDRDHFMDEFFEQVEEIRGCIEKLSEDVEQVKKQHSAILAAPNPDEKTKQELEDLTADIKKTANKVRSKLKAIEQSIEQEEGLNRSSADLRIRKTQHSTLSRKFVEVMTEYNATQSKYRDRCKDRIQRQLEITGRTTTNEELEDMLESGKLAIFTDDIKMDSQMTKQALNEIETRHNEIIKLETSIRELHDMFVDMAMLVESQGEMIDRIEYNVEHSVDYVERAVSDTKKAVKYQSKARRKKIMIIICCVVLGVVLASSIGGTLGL
UniProt Q91ZZ3: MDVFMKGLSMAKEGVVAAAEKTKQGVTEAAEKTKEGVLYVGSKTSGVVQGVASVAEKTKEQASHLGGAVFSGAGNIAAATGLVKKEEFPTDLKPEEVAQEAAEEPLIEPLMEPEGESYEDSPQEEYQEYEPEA
UniProt Q62277: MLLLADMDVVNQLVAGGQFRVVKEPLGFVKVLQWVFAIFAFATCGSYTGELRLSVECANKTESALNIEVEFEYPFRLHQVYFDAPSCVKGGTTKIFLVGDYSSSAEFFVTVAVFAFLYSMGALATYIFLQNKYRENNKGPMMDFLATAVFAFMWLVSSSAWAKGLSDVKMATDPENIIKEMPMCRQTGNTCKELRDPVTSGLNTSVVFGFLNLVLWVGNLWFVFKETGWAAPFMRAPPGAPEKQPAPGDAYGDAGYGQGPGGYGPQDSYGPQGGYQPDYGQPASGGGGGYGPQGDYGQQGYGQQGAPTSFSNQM

What was measured:
Test in all cases: co-IP; reverse co-IP under native conditions: protein G-Sepharose with 4 μg antibody against the partner, 1 mg wild-type mouse brain lysate, overnight at 4 °C; blot probed with an anti-Tau antibody; normal IgG as negative control
[1] = target: mitochondrial creatine kinase U-type (endogenous) (mouse (endogenous in C57BL/6 brain)) (UniProt P30275)
[2] = target: T1, synaptogyrin-3 (endogenous) (mouse (endogenous in C57BL/6 brain)) (UniProt Q8R191)
T1 sequence: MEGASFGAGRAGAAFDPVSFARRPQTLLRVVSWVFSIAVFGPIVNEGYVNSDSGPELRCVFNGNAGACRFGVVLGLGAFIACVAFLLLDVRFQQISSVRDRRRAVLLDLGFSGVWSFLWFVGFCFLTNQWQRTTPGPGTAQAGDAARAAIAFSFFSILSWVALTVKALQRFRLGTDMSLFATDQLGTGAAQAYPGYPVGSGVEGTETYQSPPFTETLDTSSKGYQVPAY

[3] = target: syntaxin 1B (endogenous) (mouse (endogenous in C57BL/6 brain)) (UniProt P61264)
[4] = target: β-synuclein (endogenous) (mouse (endogenous in C57BL/6 brain)) (UniProt Q91ZZ3)
[5] = target: synapsin 1 (endogenous) (mouse (endogenous in C57BL/6 brain)) (UniProt O88935)
[6] = target: synaptophysin (endogenous) (mouse (endogenous in C57BL/6 brain)) (UniProt Q62277)

Measured: binding

Tau (total Tau of adult mouse brain) (from UniProt P10637-2)
binds: all assays above
